Values from PubChem BioAssay AID1259271 (Sanger Institute, 2017).
In all, the deposit lists 160 reagents; below is a random part of them. In the full data, 124 (78%) were called active. 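Each row is one of four siRNAs per gene; gene-level confirmation, requiring two siRNAs in several cell lines, is not included.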 A number with no mark means an inactive call. The numbers tell different reagents against one gene apart. No viability above 1 is reported: the scale is capped. The record does not give: the amount of reagent, the time to read-out.

Purpose: 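Follow-up check of kinase genes for lethal pairing with a drug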 (follow-up of hits)
Cell system: RKO colorectal cancer cells
Reagents: single siRNA against human genes
Treatment: anchor drug added to each siRNA well, cetuximab 5 µg/ml, trametinib 10 nM or BYL719 1 µM, compared with DMSO vehicle; exposure length not given
Read-out: 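Survival of cells relative to control pool 2 (non-targeting), replicate average, plus a synergy score for each anchor drug (trametinib 10 nM, cetuximab 5 µg/ml, BYL719 1 µM) compared with DMSO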
Scale: synergy score with BYL719 and synergy score with cetuximab and synergy score with trametinib: higher = stronger synthetic lethality with the drug; viability, trametinib and viability, DMSO: higher = more cells surviving
Active means: 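Any anchor drug giving synergy above 0.10 makes the siRNA a hit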
Meaning of the calls: active = synergy with at least one drug; inactive = no synergy with any drug

no.	gene	siRNA no.	synergy score with BYL719	synergy score with cetuximab	synergy score with trametinib	viability, trametinib (fraction of control)	viability, DMSO (fraction of control)
1	CDKN2D	1	0.0103 (active)	0.161	0.171	0.389	1
2	CDKN2D	2	0.216 (active)	0.0411	0.243	0.317	1
3	CDKN2D	3	0.141 (active)	0.144	0.205	0.355	1
4	CDKN2D	4	0.31 (active)	0.264	0.37	0.19	1
5	ACVR1	1	-0.139	-0.0144	0.0635	0.471	0.955
6	ACVR1	2	-0.0812	-0.177	0.0751	0.334	0.731
7	ACVR1	3	-0.234	-0.0449	-0.094	0.654	1
8	ACVR1	4	-0.207	0.0324	0.0543	0.325	0.679
9	PFKFB3	1	0.111 (active)	0.176	0.132	0.395	0.942
10	PFKFB3	2	0.207 (active)	0.3	0.306	0.246	0.986
11	PFKFB3	3	0.107 (active)	0.331	0.244	0.316	1
12	PFKFB3	4	0.121 (active)	0.197	0.271	0.278	0.981
13	RPS6KA4	1	0.0552 (active)	0.178	0.233	0.229	0.827
14	RPS6KA4	2	0.303 (active)	0.341	0.276	0.241	0.924
15	RPS6KA4	3	0.0443 (active)	0.176	0.207	0.189	0.708
16	RPS6KA4	4	0.0682 (active)	0.0744	0.214	0.174	0.695
17	IKBKB	1	0.0484 (active)	0.18	0.133	0.225	0.64
18	IKBKB	2	0.0708 (active)	0.32	0.167	0.392	1
19	IKBKB	3	-0.0678	-0.0746	-0.0332	0.593	1
20	IKBKB	4	0 (active)	-0.0503	0.197	0.224	0.753

Entries above whose target name begins with I or i:
gene	siRNA no.	synergy score with BYL719	synergy score with cetuximab	synergy score with trametinib	viability, trametinib (fraction of control)	viability, DMSO (fraction of control)
IKBKB	1	0.0484 (active)	0.18	0.133	0.225	0.64
IKBKB	2	0.0708 (active)	0.32	0.167	0.392	1
IKBKB	3	-0.0678	-0.0746	-0.0332	0.593	1
IKBKB	4	0 (active)	-0.0503	0.197	0.224	0.753

The listing continues:
no.	gene	siRNA no.	synergy score with BYL719	synergy score with cetuximab	synergy score with trametinib	viability, trametinib (fraction of control)	viability, DMSO (fraction of control)
21	NR2F2	1	-0.091 (active)	0.18	0.208	0.286	0.883
22	NR2F2	2	0.0396 (active)	0.339	0.111	0.448	1
23	NR2F2	3	-0.19	-0.00208	-0.0789	0.474	0.706
24	NR2F2	4	-0.0358 (active)	-0.107	0.118	0.301	0.748
25	HUNK	1	-0.0981	0.0583	0.0564	0.503	1
26	HUNK	2	-0.127 (active)	0.0542	0.16	0.21	0.66
27	HUNK	3	0.0556 (active)	0.087	0.292	0.267	1
28	HUNK	4	0.00835 (active)	0.211	0.282	0.252	0.955
29	MAP3K8	1	-0.207	-0.0195	0.0896	0.47	1
30	MAP3K8	2	0.0856 (active)	0.113	0.158	0.242	0.714
31	MAP3K8	3	-0.106 (active)	0.125	0.158	0.401	1
32	MAP3K8	4	0.0189 (active)	0.283	0.318	0.241	1
33	EPHA6	1	0.0505 (active)	0.0943	0.277	0.282	1
34	EPHA6	2	0.285 (active)	0.334	0.395	0.164	1
35	EPHA6	3	0.121 (active)	0.242	0.397	0.162	1
36	EPHA6	4	0.183 (active)	0.23	0.212	0.348	1
37	PINK1	1	-0.188 (active)	-0.0182	0.11	0.254	0.651
38	PINK1	2	-0.0418 (active)	0.0374	0.132	0.279	0.734
39	PINK1	3	-0.0713	0.00997	0.0213	0.233	0.455
40	PINK1	4	-0.0875 (active)	0.176	0.259	0.262	0.932
41	SYNCRIP	1	0.027 (active)	0.103	0.0885	0.384	0.845
42	SYNCRIP	2	0.00631 (active)	0.0649	0.209	0.351	1
43	SYNCRIP	3	0.303 (active)	0.202	0.389	0.162	0.985
44	SYNCRIP	4	0.102 (active)	0.103	0.212	0.348	1
45	MARK3	1	-0.00368	0.0527	0.00175	0.484	0.867
46	MARK3	2	0.0456	0.086	0.00538	0.464	0.838
47	MARK3	3	-0.116 (active)	0.12	0.067	0.352	0.748
48	MARK3	4	-0.0457 (active)	0.172	0.159	0.311	0.841
49	PIK3CA	1	0.0802 (active)	0.129	0.291	0.266	0.995
50	PIK3CA	2	-0.0403 (active)	0.19	0.298	0.205	0.9
51	PIK3CA	3	0.0542 (active)	0.00965	0.349	0.211	1
52	PIK3CA	4	0.0373 (active)	0.177	0.206	0.261	0.835
